According to publication PMC8339327:
No constants are given. Whether binding was seen depends on the method and setting. Binding seen in cells or lysates may run through a third protein. Some binding calls cover weakened binding; strength is not graded here.

Protein sequences, listed by entry. Tags and fused reporters are not part of them.
UniProt P06493: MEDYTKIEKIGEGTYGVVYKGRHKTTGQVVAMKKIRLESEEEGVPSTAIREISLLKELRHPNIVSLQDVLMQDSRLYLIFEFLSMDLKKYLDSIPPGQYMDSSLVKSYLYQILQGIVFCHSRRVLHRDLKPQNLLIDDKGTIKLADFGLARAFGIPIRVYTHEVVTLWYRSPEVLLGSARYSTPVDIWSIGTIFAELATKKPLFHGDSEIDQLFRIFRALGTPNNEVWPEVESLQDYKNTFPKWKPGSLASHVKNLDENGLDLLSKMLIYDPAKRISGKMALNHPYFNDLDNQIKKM
UniProt P06748: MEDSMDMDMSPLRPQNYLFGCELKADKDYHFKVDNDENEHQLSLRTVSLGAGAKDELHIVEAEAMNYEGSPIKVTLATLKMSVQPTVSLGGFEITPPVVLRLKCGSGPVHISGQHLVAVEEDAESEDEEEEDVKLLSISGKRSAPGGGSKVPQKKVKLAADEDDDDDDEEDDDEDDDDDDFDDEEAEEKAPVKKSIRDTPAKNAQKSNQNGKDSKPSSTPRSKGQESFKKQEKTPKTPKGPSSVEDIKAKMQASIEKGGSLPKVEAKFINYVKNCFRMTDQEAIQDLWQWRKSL

B1: growth arrest and DNA damage-inducible alpha (GADD45a) (protein, UniProt P24522 1-165)
chain: MTLEEFSAGEQKTERMDKVGDALEEVLSKALSQRTITVGVYEAAKLLNVDPDNVVLCLLAADEDDDRDVALQIHFTLIQAFCCENDINILRVSNPGRLAELLLLETDAGPAASEGAEQPPDLHCVLVTNPHSSQWKDPALSQLICFCRESRYMDQWVPVINLPER
B2: RASSF10 (protein, UniProt A6NK89 1-507)
chain: MDPSEKKISVWICQEEKLVSGLSRRTTCSDVVRVLLEDGCRRRRRQRRSRRLGSAGDPHGPGELPEPPNEDDEDDDEALPQGMLCGPPQCYCIVEKWRGFERILPNKTRILRLWAAWGEEQENVRFVLVRSEASLPNAGPRSAEARVVLSRERPCPARGAPARPSLAMTQEKQRRVVRKAFRKLAKLNRRRQQQTPSSCSSTSSSTASSCSSSPRTHESASVERMETLVHLVLSQDHTIRQQVQRLHELDREIDHYEAKVHLDRMRRHGVNYVQDTYLVGAGIELDGSRPGEEPEEVAAEAEEAAAAPPLAGEAQAAALEELARRCDDLLRLQEQRVQQEELLERLSAEIQEELNQRWMRRRQEELAAREEPLEPDGGPDGELLLEQERVRTQLSTSLYIGLRLNTDLEAVKSDLDYSQQQWDSKKRELQGLLQTLHTLELTVAPDGAPGSGSPSREPGPQACADMWVDQARGLAKSGPGNDEDSDTGLSSMHSQDSDSLPMCESLV

Tests used:
[1] = molecular target: Cdk1 (human (endogenous in AGS)) (UniProt P06493); assay: co-IP; lysates of AGS cells with ectopic RASSF10 expression; Cdk1 precipitated, blots for cyclin-B and GADD45a
[2] = molecular target: Nucleophosmin (NPM) (human (AGS cells)) (UniProt P06748); assay: co-IP; AGS cell lysates, RASSF10 against cyclin-B, Cdk1 or NPM; also reverse co-IP; Western blot
[3] = molecular target: Cdk1 (human (endogenous in AGS)) (UniProt P06493); assay: as above

Row | Binder | binding [1] | binding [2] | binding [3]
1 | B1 | binds | – | –
2 | B2 | – | no binding | no binding
